According to PubChem BioAssay AID504467 (National Center for Advancing Translational Sciences (NCATS), 2011):
In all, about 330,000 compounds went through this assay and about 7,700 (2.3%) were called active. The inconclusive results got no clear call from the source; some entries with a clear call stand among them for comparison. Calls come from the whole dose curve; as a rule, active = well fitted inhibition curve with a large enough effect; inconclusive = small, poorly fitted or top-dose-only effect, or effect the other way; inactive = flat fitted curve, though single readings scatter. Where the call is inconclusive, the potency comes from a doubtful curve fit.
% is set by controls: 0 for no effect and ±100 for the full control effect; potency is the fitted concentration of half-maximal effect.

Experiment: qHTS screen for small molecules that inhibit ELG1-dependent DNA repair in human embryonic kidney (HEK293T) cells expressing luciferase-tagged ELG1; note: nearly all actives have a fitted effect of over 55% in size
Settings: HEK293T ELG1-luciferase reporter, luminescence, 16 h, DNA damage induced by 5-fluorouridine; activity change, negative = inhibition: at 46.1 µM (top of the series)
Method in brief: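 HEK293T cells expressing luciferase-tagged ELG1 (2,000/well) received 5-Fluorouridine plus compound or DMSO for 16 hr at 37 °C. Luciferase was read by ONE-Glo luminescence after 30 min at room temperature.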
With `Cc1nc(CCl)cc(=O)[nH]1` the Potency was inconclusive: 29.1 µM [activator, single point]. For `O=C(Cc1ccccc1)OCC(=O)c1ccc(F)cc1`, the Potency was inconclusive: 23.1 µM [activator, partial curve, poor fit]. With `O=C(NN1C(=O)C2C3C=CC([C@H]4CC34)[C@@H]2C1=O)c1ccc(Br)cc1` (stereo not given in full) the Potency was inconclusive: 4.11 µM [inhibitor, single point]. With `COc1ccc(C(=O)CN2CCCCC2)cc1` the Potency was inconclusive: 29.1 µM [activator, partial curve, poor fit]. With `CN1C(=O)C(=Cc2ccc(-c3cccc(Cl)c3)o2)C(=O)N(C)C1=O` the Potency was inconclusive: 23.1 µM [activator, single point]. In the case of `CC/C(=N\NC(=S)Nc1ccccc1)c1c(O)[nH]c(=O)[nH]c1=O`, the “activity change, negative = inhibition” value is reported as inactive: 0%. In the case of `CCOc1ccc(NC(=O)c2ccc(NC(=O)COC(=O)Cc3ccccc3)cc2)cc1`, the Potency is reported as inconclusive: 18.4 µM [activator, partial curve]. In the case of `O=c1c2ccccc2nc(-c2ccco2)n1-c1nccs1`, the “activity change, negative = inhibition” value is reported as inactive: 2.72%. With `N#C/C(=C\c1ccc([N+](=O)[O-])cc1)c1nc(C2CC2)cs1` the Potency was inconclusive: 4.11 µM [activator, full curve]. In the case of `CCC(=Nc1ccc(OC)cc1OC)c1c(O)n(C2CCCCC2)c(=O)[nH]c1=O`, the Potency is reported as active: 18.4 µM. With `O=C(Cc1ccccc1)OCC(=O)c1ccccc1` the Potency was inconclusive: 14.6 µM [activator, partial curve, poor fit]. With `Cc1cc(/C=C2\C(=O)NC(=O)N(Cc3ccccc3Cl)C2=O)c(C)n1-c1ccc(C(=O)O)cc1` the “activity change, negative = inhibition” value was inactive: 5.63%. For `CNc1cc(Cl)c2nonc2c1[N+](=O)[O-]`, the Potency was inconclusive: 29.1 µM [inhibitor, single point]. In the case of `CCC(Oc1cc(Cl)ccc1Cl)C(=O)N1CCC2(CC1)OCCO2` (stereo not given), the Potency is reported as inconclusive: 3.66 µM [activator, full curve]. With `O=C(COc1ccccc1F)N1CCN(CCN2C(=O)c3cccc4cccc(c34)C2=O)CC1` the Potency was inconclusive: 20.6 µM [inhibitor, partial curve]. In the case of `O=C(COC(=O)c1cccc(O)c1)Nc1ccc(Cl)cc1C(=O)c1ccccc1`, the Potency is reported as inconclusive: 25.9 µM [inhibitor, single point]. With `CN(C)C(=O)On1c(-c2ccccc2)nc2ccc(Cl)cc21` the “activity change, negative = inhibition” value was inactive: 13.3%. In the case of `O=C(c1ccc2c(=O)n(Cc3ccc4c(c3)OCO4)c(=S)[nH]c2c1)N1CCC2(CC1)OCCO2`, the Potency is reported as inconclusive: 18.4 µM [inhibitor, single point]. For `CCOc1ccccc1CNCCc1ccc2c(c1)OCO2`, the “activity change, negative = inhibition” value was inactive: -4.25%. For `Cc1ccc(-n2c(CNCc3ccc(F)cc3)nc3ccccc3c2=O)cc1`, the Potency was inconclusive: 18.3 µM [activator, single point]. With `CCOC(=O)c1cc(CC)sc1/N=C/c1c(O)[nH]c(=S)[nH]c1=O` the “activity change, negative = inhibition” value was inactive: -1.1%. For `CCn1c(=O)cc(OCC(=O)N2CCN(Cc3ccc4c(c3)OCO4)CC2)c2ccccc21`, the Potency was inconclusive: 8.2 µM [activator, partial curve]. With `Cc1cc(OCC(=O)OC(C)C)c2c3c(c(=O)oc2c1)CCCC3` the Potency was inconclusive: 23.1 µM [inhibitor, partial curve]. In the case of `CN(Cc1ccccc1)C(=O)CN1CCCC1=O`, the “activity change, negative = inhibition” value is reported as inactive: -0.907%. For `Cc1ccc(CN2CCCN(Cc3ccc(Cl)cc3)S2(=O)=O)cc1`, the Potency was inconclusive: 11.6 µM [activator, partial curve, poor fit]. With `CCCCCSc1cc(OC)c(CCN(C)C)cc1OC` the “activity change, negative = inhibition” value was inactive: 8.44%. For `O=c1[nH]c(=O)n(Cc2ccccc2Cl)c(O)c1/C=C1/C=CC=N1`, the “activity change, negative = inhibition” value was inactive: -13.1%. For `CCOc1ccc(CNCCc2ccc3c(c2)OCO3)cc1`, the “activity change, negative = inhibition” value was inactive: 19.1%. With `O=[N+]([O-])c1ccc(N2CCCC(C(F)(F)F)C2)c2ccncc12` (stereo not given) the “activity change, negative = inhibition” value was inactive: -25.5%. With `C[C@]12CCC3C(CC[C@H]4C[C@@H](O)CC[C@]34C)C1CC[C@@H]2OC(=O)[C@H](N)CCCCN` (stereo not given in full) the “activity change, negative = inhibition” value was inactive: 14.9%. In the case of `COC(=O)C1=C(c2c(C)noc2C)C[C@@H]2CC[C@H]1N2C(=O)N1CCC(O)(c2ccc(Cl)cc2)CC1`, the Potency is reported as inconclusive: 23.1 µM [inhibitor, partial curve, poor fit]. For `COc1cccc(-n2c(CN3CCN(C)CC3)nc3ccc([N+](=O)[O-])cc3c2=O)c1`, the Potency was inconclusive: 29.1 µM [inhibitor, single point]. In the case of `Cc1cc(/C=C2\C(=O)NC(=S)N(C)C2=O)c(C)n1C1CCCCC1`, the Potency is reported as inconclusive: 18.4 µM [activator, partial curve]. For `c1cncc(CNCCc2ccc3c(c2)OCO3)c1`, the “activity change, negative = inhibition” value was inactive: 5.56%. With `COc1cc2c(c(OC)c1OC)-c1ccc(O)cc1[C@@H](NC(C)=O)CC2` the Potency was inconclusive: 1.26 µM [activator, partial curve]. For `Oc1ccccc1-[n+]1c(-c2ccccc2)cc(-c2ccccc2)c(O)c1-c1ccccc1`, the “activity change, negative = inhibition” value was inactive: 25.3%. In the case of `O=P(NCc1ccccc1)(Oc1ccccc1)Oc1ccccc1`, the Potency is reported as inconclusive: 20.6 µM [inhibitor, single point]. In the case of `CC1(C)COC(Nc2cccc(Cl)c2)=N1`, the Potency is reported as inconclusive: 16.4 µM [activator, partial curve, poor fit]. In the case of `Cc1ccc(N)c(N)c1`, the Potency is reported as inconclusive: 1.03 µM [activator, full curve]. With `CC(=NCCc1c[nH]c2ccccc12)c1c(O)n(Cc2ccccc2)c(=O)[nH]c1=O` the Potency was inconclusive: 25.9 µM [inhibitor, single point]. In the case of `CC1=CC(=O)OC2CC3OC4C[C@@H](C)C5OC6CC7O[C@]8(C)C/C=C\C9OC%10CC%11OC(CC(C)CO)CC(O)[C@]%11(C)OC%10CC9OC8C[C@]7(C)O[C@]6(C)CCC5OC4C[C@]3(C)OC12` (stereo not given in full), the “activity change, negative = inhibition” value is reported as inactive: -8.56%. With `COC(=O)C1=C(c2cccc(OC)c2OC)C[C@@H]2CC[C@H]1N2C` the Potency was inconclusive: 0.231 µM [inhibitor, single point]. In the case of `CCOP(=O)(OCC)c1nc(-c2cccc3ccccc23)oc1NCc1ccccc1`, the Potency is reported as inconclusive: 14.6 µM [inhibitor, partial curve]. In the case of `CN(C)CCN(C(=O)c1cc(Cl)sc1Cl)c1nc2ccc(F)cc2s1`, the Potency is reported as inconclusive: 23.1 µM [activator, partial curve, poor fit]. In the case of `CSc1ccccc1NC(=O)CN(C)CC(=O)c1[nH]c(C)c(C(C)=O)c1C`, the Potency is reported as active: 16.4 µM. With `Cc1ccc(/C=C2/C(=O)NC(=O)N(Cc3ccc(F)cc3)C2=O)o1` the Potency was inconclusive: 18.3 µM [activator, single point]. In the case of `CC1CN(C(=O)CCC(=O)N2CCC3(CC2)OCCO3)c2cc(Cl)ccc2O1` (stereo not given), the Potency is reported as inconclusive: 10.3 µM [activator, partial curve, poor fit]. With `Cc1ccccc1N1C(=O)NC(=O)/C(=C/c2ccc(N3CCOCC3)o2)C1=O` the “activity change, negative = inhibition” value was inactive: 2.87%. For `C=CC(=O)NCNC(=O)C=C`, the Potency was inconclusive: 1.16 µM [inhibitor, single point]. For `Cc1ccccc1C1=NCC(=O)N(CC(=O)NCc2ccco2)c2sc3c(c21)CCCC3`, the Potency was inconclusive: 29.1 µM [inhibitor, single point]. In the case of `Cn1c(O)c(C=NC2CCCCCC2)c(=O)[nH]c1=S`, the “activity change, negative = inhibition” value is reported as inactive: 4.74%. With `O=C(Cc1n[nH]c(=O)c2ccccc12)OCc1c(Cl)cccc1Cl` the Potency was inconclusive: 0.206 µM [inhibitor, single point]. In the case of `COc1ccccc1N1C(=O)CC(=O)NC1=O`, the “activity change, negative = inhibition” value is reported as inactive: 16%. In the case of `CCOc1ccc(N=Cc2c(O)n(-c3cc(C)cc(C)c3)c(=O)[nH]c2=O)cc1`, the Potency is reported as inconclusive: 29.1 µM [activator, single point]. In the case of `COc1ccc(-n2c(/C=C/c3ccc(O)cc3)nc3ccccc3c2=O)cc1`, the Potency is reported as inconclusive: 18.3 µM [inhibitor, single point]. For `COc1cc2c(cc1O)C[C@H]1NCCc3cc4c(c-2c31)OCO4`, the Potency was inconclusive: 14.6 µM [inhibitor, partial curve]. For `CCOc1cc(/C=C2\C(=O)NC(=O)N(CCc3ccc(F)cc3)C2=O)ccc1O`, the “activity change, negative = inhibition” value was inactive: 13.3%. For `CCn1c(C)[n+](CC(O)COCC2CC=CCC2)c2ccccc21` (stereo not given), the Potency was inconclusive: 23.1 µM [inhibitor, single point]. With `Cc1ccc(C(=O)OCC(=O)NC2CCCCC2)o1` the Potency was inconclusive: 11.6 µM [activator, partial curve]. With `C[C@]12CC[C@@H](O)CC1=CC(=O)C1C2CC[C@]2(C)C(=O)CCC12` (stereo not given in full) the “activity change, negative = inhibition” value was inactive: -12%. For `COc1ccc(S(=O)(=O)Nc2cc([N+](=O)[O-])ccc2OC)cc1`, the Potency was inconclusive: 23.1 µM [inhibitor, single point]. With `Cc1ccc(-c2nc3ccccc3c(=O)n2-c2cc(C)ccn2)cc1` the Potency was inconclusive: 20.6 µM [activator, partial curve]. For `N#Cc1ccc(/C=C/C(=O)O)cc1`, the “activity change, negative = inhibition” value was inactive: -8.13%. In the case of `Cc1cc(C=C2C(=O)NC(=S)NC2=O)c(C)n1C1CCCC1`, the Potency is reported as inconclusive: 18.3 µM [activator, partial curve]. With `CCCCCSc1cc(O)c(C(CNC)C(C)C)cc1OC` (stereo not given) the “activity change, negative = inhibition” value was inactive: -5.5%. In the case of `Cc1cccc(-c2nc3ccccc3c(=O)n2-n2cccc2)c1`, the Potency is reported as inconclusive: 29.1 µM [inhibitor, single point]. In the case of `O=P(Nc1ccccc1)(Nc1ccccc1)Oc1ccccc1`, the Potency is reported as inconclusive: 25.9 µM [inhibitor, partial curve, poor fit]. In the case of `CC1(C)Cc2c(c(N3CCOCC3)nc3sc4c(NCc5ccccc5)nnnc4c23)CS1`, the Potency is reported as active: 13 µM. With `CSc1ccc(C(c2c(O)c3ccccc3oc2=O)c2c(C)n(C)n(-c3ccccc3)c2=O)cc1` (stereo not given) the “activity change, negative = inhibition” value was inactive: 8.95%. With `CCN(CC)C(=O)c1ccc(NC(=O)CSc2nnnn2-c2cc(OC)ccc2OC)cc1` the “activity change, negative = inhibition” value was inactive: -29.4%.
